Assay results published in the supplement of paper PMC4635364.
Structures can show the parent of a compound that is named as a salt. Some of the results follow. Single values are uncertain here, since repeats match poorly.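 ReNCell VM, a human fetal ventral-midbrain neural progenitor line, was differentiated without mitogens. Blinded raters scored images stained for doublecortin (early neurons) or tyrosine hydroxylase (dopaminergic neurons) against untreated wells (0 = no change). Scores were averaged across repeats and both raters, and compounds averaging 2 or more were selected as hits for retesting.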

Columns and labels:
ReNCell VM [1] = assay: neuronal differentiation score (DCX+ cell fraction vs untreated, manual image score) (score (-3 to 3)); higher = more neuronal differentiation; details: 2 uM, 2 weeks
ReNCell VM [2] = assay: dopaminergic neuron differentiation score (TH+ cell fraction vs untreated, manual image score) (score (0 to 3)); higher = more TH+ dopaminergic neuron differentiation; details: 2 uM, 4 weeks, BDNF 10 ng/ml + GDNF 10 ng/ml

CCc1nc(N)nc(N)c1-c1ccc(Cl)cc1
neuronal differentiation score (ReNCell VM [1]; library: Spectrum): inactive: 0 | dopaminergic neuron differentiation score (ReNCell VM [2]; library: Spectrum): inactive: 0

NS(=O)(=O)c1cc(C2(O)NC(=O)c3ccccc32)ccc1Cl (stereo not drawn)
neuronal differentiation score (ReNCell VM [1]; library: Spectrum): inactive: 0 | dopaminergic neuron differentiation score (ReNCell VM [2]; library: Spectrum): inactive: 0

CCOC(=O)c1ccc(OC(=O)CCCCCNC(=N)N)cc1 [Gabexate mesylate]
neuronal differentiation score (ReNCell VM [1]; library: Tocriscreen): inactive: 0 | dopaminergic neuron differentiation score (ReNCell VM [2]; library: Tocriscreen): inactive: 0

C=CCCCCCCCCC(=O)[O-].C=CCCCCCCCCC(=O)[O-].[Zn+2]
neuronal differentiation score (ReNCell VM [1]; library: Spectrum): inactive: 0 | dopaminergic neuron differentiation score (ReNCell VM [2]; library: Spectrum): inactive: 0

Clc1ccc(C(c2ccc(Cl)cc2)[n+]2ccn(CC(OCc3ccc(Cl)cc3Cl)c3ccc(Cl)cc3Cl)c2)cc1 (stereo not drawn) [Calmidazolium chloride]
neuronal differentiation score (ReNCell VM [1]; library: LOPAC): inactive: 0 | dopaminergic neuron differentiation score (ReNCell VM [2]; library: LOPAC): inactive: 0

OC[C@@H](O)[C@@H](O)[C@H](O)[C@H](O)CO
neuronal differentiation score (ReNCell VM [1]; library: Spectrum): inactive: 0 | dopaminergic neuron differentiation score (ReNCell VM [2]; library: Spectrum): inactive: 0

CC(C)NC[C@@H](O)COc1cccc2ccccc12 [(R)-(+)-Propranolol hydrochloride]
neuronal differentiation score (ReNCell VM [1]; library: Tocriscreen): inactive: 0 | dopaminergic neuron differentiation score (ReNCell VM [2]; library: Tocriscreen): inactive: 0

Cc1ncc(COP(=O)([O-])[O-])c(CN(CCN(CC(=O)O)Cc2c(COP(=O)([O-])O)cnc(C)c2O)CC(=O)O)c1O.[Mn].[Na+].[Na+].[Na+]
neuronal differentiation score (ReNCell VM [1]; library: Spectrum): inactive: 0 | dopaminergic neuron differentiation score (ReNCell VM [2]; library: Spectrum): inactive: 0

COc1cccc(OC)c1OCCNCC1CSc2ccccc2O1 (stereo not drawn) [Benoxathian hydrochloride]
neuronal differentiation score (ReNCell VM [1]; library: LOPAC): inactive: 0 | dopaminergic neuron differentiation score (ReNCell VM [2]; library: LOPAC): inactive: 0

Cc1cccc(C)c1NC(=O)CN1CCN(CCCC(c2ccc(F)cc2)c2ccc(F)cc2)CC1 [Lidoflazine]
neuronal differentiation score (ReNCell VM [1]; library: Prestwick): inactive: 0 | dopaminergic neuron differentiation score (ReNCell VM [2]; library: Prestwick): inactive: 0

CNC(=C[N+](=O)[O-])NCCSCc1csc(CN(C)C)n1 [Nizatidine]
neuronal differentiation score (ReNCell VM [1]; library: Prestwick): inactive: 0 | dopaminergic neuron differentiation score (ReNCell VM [2]; library: Prestwick): inactive: 0

CC(=O)O[C@]1(C(C)=O)CC[C@H]2[C@@H]3C=C(C)C4=CC(=O)CC[C@@H]4[C@H]3CC[C@@]21C [Nomegestrol acetate]
neuronal differentiation score (ReNCell VM [1]; library: Prestwick): inactive: 0 | dopaminergic neuron differentiation score (ReNCell VM [2]; library: Prestwick): inactive: 0

C[C@@H]1O[C@@H](OC[C@H]2O[C@@H](Oc3c(-c4ccc(O)c(O)c4)oc4cc(O)cc(O)c4c3=O)[C@H](O)[C@@H](O)[C@@H]2O)[C@H](O)[C@H](O)[C@H]1O [Rutin]
neuronal differentiation score (ReNCell VM [1]; library: Phytochemical): inactive: 0 | dopaminergic neuron differentiation score (ReNCell VM [2]; library: Phytochemical): inactive: 0

O=C(CCCN1CCC(O)(c2ccc(Cl)cc2)CC1)c1ccc(F)cc1
neuronal differentiation score (ReNCell VM [1]; library: Spectrum): inactive: 0 | dopaminergic neuron differentiation score (ReNCell VM [2]; library: Spectrum): inactive: 0

OC[C@H]1NC[C@H](O)[C@@H](O)[C@@H]1O [1-Deoxynojirimycin hydrochloride]
neuronal differentiation score (ReNCell VM [1]; library: LOPAC): inactive: 0 | dopaminergic neuron differentiation score (ReNCell VM [2]; library: LOPAC): inactive: 0

CN(CC[C@@H](Oc1ccc(-c2ccccc2)cc1)c1ccc(F)cc1)CC(=O)O [ALX 5407 hydrochloride]
neuronal differentiation score (ReNCell VM [1]; library: Tocriscreen): inactive: 0 | dopaminergic neuron differentiation score (ReNCell VM [2]; library: Tocriscreen): inactive: 0

CN1CCC(=C2c3ccccc3CC(=O)c3sccc32)CC1
neuronal differentiation score (ReNCell VM [1]; library: Spectrum): inactive: 0 | dopaminergic neuron differentiation score (ReNCell VM [2]; library: Spectrum): inactive: 0

Nc1ncnc2c1ncn2[C@@H]1O[C@H](CO)[C@@H](O)[C@@H]1O [Vidarabine]
neuronal differentiation score (ReNCell VM [1]; library: Prestwick): inactive: 0 | dopaminergic neuron differentiation score (ReNCell VM [2]; library: Prestwick): inactive: 0

COc1c2ccoc2c(OC)c2oc(=O)ccc12
neuronal differentiation score (ReNCell VM [1]; library: Spectrum): inactive: -1 | dopaminergic neuron differentiation score (ReNCell VM [2]; library: Spectrum): inactive: 0

N#Cc1ccc(C(c2ccc(C#N)cc2)n2cncn2)cc1
neuronal differentiation score (ReNCell VM [1]; library: Spectrum): inactive: 0 | dopaminergic neuron differentiation score (ReNCell VM [2]; library: Spectrum): inactive: 0

COc1cc2nc3occc3c(OC)c2cc1OC [Kokusaginine]
neuronal differentiation score (ReNCell VM [1]; library: Phytochemical): inactive: 0 | dopaminergic neuron differentiation score (ReNCell VM [2]; library: Phytochemical): inactive: 0

Cn1cnc2c1c(=O)[nH]c(=O)n2C
neuronal differentiation score (ReNCell VM [1]; library: Spectrum): inactive: 0 | dopaminergic neuron differentiation score (ReNCell VM [2]; library: Spectrum): inactive: 0

CC[C@]1(O)C[C@H]2CN(CCc3c([nH]c4ccccc34)[C@@](C(=O)OC)(c3cc4c(cc3OC)N(C=O)[C@H]3[C@@](O)(C(=O)OC)[C@H](OC(C)=O)[C@]5(CC)C=CCN6CC[C@]43[C@@H]65)C2)C1
neuronal differentiation score (ReNCell VM [1]; library: Spectrum): inactive: 0 | dopaminergic neuron differentiation score (ReNCell VM [2]; library: Spectrum): inactive: 0

CCCCC1(C2CCCC2)Cc2cc(OCC(=O)O)c(Cl)c(Cl)c2C1=O (stereo in doubt) [R(+)-Butylindazone]
neuronal differentiation score (ReNCell VM [1]; library: LOPAC): inactive: 0 | dopaminergic neuron differentiation score (ReNCell VM [2]; library: LOPAC): inactive: 0

Cc1c(C(=O)NN2CCOCC2)nn(-c2ccc(Cl)cc2Cl)c1-c1ccc(I)cc1
neuronal differentiation score (ReNCell VM [1]; library: Tocriscreen): inactive: 0 | dopaminergic neuron differentiation score (ReNCell VM [2]; library: Tocriscreen): inactive: 0

CCC(=O)NC1CCc2cccc(OC)c2C1 (stereo not drawn)
neuronal differentiation score (ReNCell VM [1]; library: Tocriscreen): inactive: 0 | dopaminergic neuron differentiation score (ReNCell VM [2]; library: Tocriscreen): inactive: 0

O=C1CCc2c(ccc3ccccc23)O1 [Splitomicin]
neuronal differentiation score (ReNCell VM [1]; library: Tocriscreen): inactive: 0 | dopaminergic neuron differentiation score (ReNCell VM [2]; library: Tocriscreen): inactive: 0

N=c1ccn2c(n1)OC[C@H]1[C@H](O)[C@H](O)O[C@H]12
neuronal differentiation score (ReNCell VM [1]; library: Natural): inactive: 0 | dopaminergic neuron differentiation score (ReNCell VM [2]; library: Natural): inactive: 0

O=C1O/C(=C/Br)CCC1c1cccc2ccccc12 (stereo not drawn) [Bromoenol lactone]
neuronal differentiation score (ReNCell VM [1]; library: LOPAC): inactive: 0 | dopaminergic neuron differentiation score (ReNCell VM [2]; library: LOPAC): inactive: 0

CCC(=O)[C@@]1(C)[C@H](C)C[C@H]2[C@@H]3CCC4=CC(=O)C=C[C@]4(C)[C@H]3[C@@H](O)C[C@@]21C [Rimexolone]
neuronal differentiation score (ReNCell VM [1]; library: Prestwick): inactive: 0 | dopaminergic neuron differentiation score (ReNCell VM [2]; library: Prestwick): inactive: 0

COc1cc(C(C)=O)cc(OC)c1O
neuronal differentiation score (ReNCell VM [1]; library: Spectrum): inactive: 0 | dopaminergic neuron differentiation score (ReNCell VM [2]; library: Spectrum): inactive: 0

O=c1ncccn1[C@@H]1O[C@H](CO)[C@@H](O)[C@H]1O [Zebularine]
neuronal differentiation score (ReNCell VM [1]; library: Tocriscreen): inactive: 0 | dopaminergic neuron differentiation score (ReNCell VM [2]; library: Tocriscreen): inactive: 0

C[C@H]1O[C@H](O[C@H]2[C@H](O)[C@@H](O)[C@@H](O[C@H]3[C@H](O)[C@@H](O)C(O)O[C@@H]3CO)O[C@@H]2CO)[C@H](O)[C@@H](O)[C@@H]1N[C@H]1C=C(CO)[C@@H](O)[C@H](O)[C@H]1O (stereo partly drawn)
neuronal differentiation score (ReNCell VM [1]; library: Spectrum): inactive: 0 | dopaminergic neuron differentiation score (ReNCell VM [2]; library: Spectrum): inactive: 0

COc1c2ccoc2cc2oc(C)cc(=O)c12 [5-methoxy-2-methylfuranochromone]
neuronal differentiation score (ReNCell VM [1]; library: Phytochemical): inactive: 0 | dopaminergic neuron differentiation score (ReNCell VM [2]; library: Phytochemical): inactive: 0
